Data as given in patent US20150098955A1 (VIELA BIO, published 2015).
These are yes or no findings as the source states them, for the method shown. Some entries that bind do so weakly or less than the wild type.

Protein sequences, listed by entry. Tags and fused reporters are not part of them. Residues count along the entry.
UniProt P29965, residues 47-261: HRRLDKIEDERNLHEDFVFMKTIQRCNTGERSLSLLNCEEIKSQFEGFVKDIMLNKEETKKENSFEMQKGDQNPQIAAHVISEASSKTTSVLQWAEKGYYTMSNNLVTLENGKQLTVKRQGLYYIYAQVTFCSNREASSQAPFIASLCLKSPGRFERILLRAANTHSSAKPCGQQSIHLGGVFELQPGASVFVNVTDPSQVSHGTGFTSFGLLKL

What was measured:
[1] = biological target: Recombinant human CD40L (Human MegaCD40L; Axxora) (human) (UniProt P29965); experiment: capture ELISA: His-tagged Tn3 captured on anti-His antibody, biotinylated Human MegaCD40L detected with SA-HRP
[2] = biological target: Recombinant human CD40L (Human MegaCD40L; Axxora) (human) (UniProt P29965); experiment: loop swapping experiment, plate binding assay
[3] = biological target: Recombinant human CD40L (Human MegaCD40L; Axxora) (human) (UniProt P29965); experiment: plate binding assay: anti-His capture of Tn3, biotinylated human MegaCD40L, SA-HRP

- binding [1]: binds
- binding [2]: binds
- binding [3]: binds
B1: Clone 309FGwt - Parental clone with 'humanized' FG loop (designed binder)
chain: AIEVKDVTDTTALITWSDEFGHYDGCELTYGIKDVPGDRTTIDLWWHSAWYSIGNLKPDTEYEVSLICRRGDMSSNPAKETFTTGGGTLGHHHHHHHH
